# PubChem BioAssay AID2685 (National Center for Advancing Translational Sciences (NCATS), 2010)
# Screen size: about 320,000 compounds; about 2,100 (0.66%) were called active. Inconclusive results, whose numbers are uncertain, are shown with a selection of clear calls. Calls come from the whole dose curve; as a rule, active = well fitted inhibition curve with a large enough effect in the signal ratio, with a control signal flat (not every such curve was filed as active); inconclusive = small, poorly fitted or top-dose-only effect, or effect the other way, or a change in a side signal; inactive = flat fitted curve, though single readings scatter; the % refers to the signal ratio. Where the call is inconclusive, the potency comes from a doubtful curve fit.
# Test: qHTS Assay for Lipid Storage Modulators in Drosophila S3 Cells
# Conditions: BODIPY lipid droplet fluorescence, 18-24 h, cells fed with added oleic acid; lipid storage change, negative = inhibition: at 46.1 µM (top of the series) unless noted
# In short: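 Drosophila S3 cells loaded with oleic acid (400 uM, as added) and compounds at several concentrations; lipid droplets imaged by 488-nm laser-scanning cytometry, 500–530 nm intensity and object ratio to cell channel. Percent activity normalized to 20 uM Triacsin C.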
# % is set by controls: 0 for no effect and ±100 for the full control effect; potency is the fitted concentration of half-maximal effect.
Compound,"lipid storage change, negative = inhibition",Potency
O=C(CCn1c(=S)oc2ccccc21)N1CCN(c2ccc(F)cc2)CC1,inconclusive: 11.8%,–
CCOC(=O)N1CCC(Nc2cc(C)nc3c(-c4ccccc4OC)c(C)nn23)CC1,–,"inconclusive: 0.164 µM [activator, full curve]"
Cc1ccccc1CCN(C(=O)c1csnn1)C(C(=O)NC1CCCC1)c1ccncc1 (centres undefined),inconclusive: -41.6%,–
COc1ccccc1N1CCN(S(=O)(=O)c2cn(C)nc2C)CC1,–,"inconclusive: 6.51 µM [activator, single point]"
CCOC(=O)c1cc2c(N)c(C(=O)c3cc(C#N)c(SC)nc3C)sc2nc1C,–,"inconclusive: 2.06 µM [activator, full curve]"
COc1ccc(-n2nc(C(=O)NCC(=O)NC3CCCC(C)C3C)c3ccccc3c2=O)cc1 (centres undefined),inconclusive: -100%,–
COc1cccc(NC(=O)CSc2ccc(-c3sc(C)nc3C)nn2)c1,inconclusive: 1.63%,–
CC(C)=C1C2CCC1C(C(=O)NCc1ccccc1)C2C(=O)O (centres undefined),–,active: 25.9 µM
CCN(CC(=O)NCc1cccs1)C(=O)c1cc(S(=O)(=O)N2CCOCC2)ccc1C,inconclusive: 18.9%,–
COc1cccc(C(=O)N2CCN(C(=O)C3CC3)CC2)c1,inconclusive: 17.3%,–
Cc1ccc(CNC(=O)CN2C(=O)C3(OCCCO3)c3ccccc32)cc1,inconclusive: 5.44%,–
Cc1cnc(C(=O)OCC(=O)NC(C)CCc2ccccc2)cn1 (centres undefined),inconclusive: 35.3%,–
C#CCOCCOCCOCCNc1nc(N2CCN(C(=O)CCCCCCCCCCNC(=O)[C@H](CO)n3cc(CCCSC)nn3)CC2)nc(N2CCN(C(=O)CCCCCCCCCCNC(=O)[C@H](CO)n3cc(CCCSC)nn3)CC2)n1,inconclusive: -47.2%,–
CCOC(=O)c1sc(NC(=O)CCN2CCCCCC2)c(C(=O)OCC)c1C,inconclusive: -38.9%,–
CN1CCN(C(=O)c2ccccc2NC(=O)c2cccs2)CC1,–,"inconclusive: 0.461 µM [falling, full curve]"
CCOC(=O)C1=C(CSc2nc(C)cc(C)c2C#N)OC(N)=C(C#N)C1c1cccs1 (centres undefined),inconclusive: 2.1%,–
CC(C)(C)C(=O)N1CCN(c2ccc([N+](=O)[O-])c(NCc3cccnc3)c2)CC1,–,"inconclusive: 14.6 µM [falling, partial curve]"
COC(=O)c1ccc2c(=O)n(CCO)c(=S)[nH]c2c1,–,"inconclusive: 29.1 µM [activator, single point]"
Cc1ccc(S(=O)(=O)N2CCC(C(=O)Nc3ccc(S(=O)(=O)N4CCCC4)cc3)CC2)cc1C,inconclusive,–

# Retrieved by structure from above, 2 records:
Compound,"lipid storage change, negative = inhibition",Potency
CN1CCN(C(=O)c2ccccc2NC(=O)c2cccs2)CC1,–,"inconclusive: 0.461 µM [falling, full curve]"
CC(C)=C1C2CCC1C(C(=O)NCc1ccccc1)C2C(=O)O (centres undefined),–,active: 25.9 µM
